Values quoted from earlier work in patent publication US20020099050A1, “Drugs that enhance synaptic responses mediated by AMPA receptors” (priority 1993, published 2002).
At least one compound was matched to its structure with a doubt left.

Test system: AMPA receptor
Conditions: cited from earlier work

SMILES: COc1ccc(C(=O)N2CCCC2=O)cc1 [aniracetam, N-anisoyl-2-pyrrolidinone]
- effective concentration (applied directly to the brain): -1.0 mM
- facilitation of AMPA receptor mediated responses in slices (nootropics tested in slices): facilitate AMPA receptor mediated responses
